In article PMC4834435:
No constants are given. Whether binding was seen depends on the method and setting. For some of these results: Binding seen in cells or lysates may run through a third protein. Some binding calls cover weakened binding; strength is not graded here. Tags and fused reporters may be left off the sequences shown.

Legend:
[1] = molecular target: T1, His-tagged Orc1 (Orc1-His), wild type (S. cerevisiae) (UniProt P54784); test: pull-down; cleared lysates of 293T cells co-overexpressing Orc1-His, Orc2, Orc3, Orc4, Orc5 with or without Orc6; pulldown by the His tag; 9% SDS-PAGE, Coomassie staining
T1 sequence: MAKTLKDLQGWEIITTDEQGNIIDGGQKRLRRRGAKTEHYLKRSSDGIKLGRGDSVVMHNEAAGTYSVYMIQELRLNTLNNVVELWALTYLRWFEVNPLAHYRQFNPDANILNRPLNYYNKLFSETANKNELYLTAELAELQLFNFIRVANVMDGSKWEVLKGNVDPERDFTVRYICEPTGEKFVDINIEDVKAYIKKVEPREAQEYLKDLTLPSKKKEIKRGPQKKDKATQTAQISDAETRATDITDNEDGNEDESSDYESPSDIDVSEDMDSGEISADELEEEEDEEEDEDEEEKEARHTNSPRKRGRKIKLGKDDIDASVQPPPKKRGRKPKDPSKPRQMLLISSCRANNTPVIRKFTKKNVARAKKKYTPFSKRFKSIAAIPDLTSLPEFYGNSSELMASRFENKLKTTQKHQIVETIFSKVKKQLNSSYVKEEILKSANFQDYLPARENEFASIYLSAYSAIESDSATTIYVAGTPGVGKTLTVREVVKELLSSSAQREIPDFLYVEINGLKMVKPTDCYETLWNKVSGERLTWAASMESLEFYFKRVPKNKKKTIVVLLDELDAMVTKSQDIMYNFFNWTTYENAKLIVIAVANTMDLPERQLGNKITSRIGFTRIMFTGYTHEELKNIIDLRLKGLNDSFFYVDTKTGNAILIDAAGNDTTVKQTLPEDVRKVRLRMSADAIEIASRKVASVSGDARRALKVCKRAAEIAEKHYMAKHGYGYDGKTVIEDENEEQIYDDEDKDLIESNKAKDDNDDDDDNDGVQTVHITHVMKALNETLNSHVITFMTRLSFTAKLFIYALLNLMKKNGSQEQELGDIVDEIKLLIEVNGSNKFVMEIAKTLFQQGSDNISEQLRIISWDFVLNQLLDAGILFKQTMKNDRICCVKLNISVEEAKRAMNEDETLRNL

[2] = molecular target: T1, His-tagged Orc1 (Orc1-His), wild type (S. cerevisiae); test: SEC; Superdex 200 in buffer H/0.2 (200 mM KCl) of the peak fractions after His affinity step and SP Sepharose; fractions on 9% SDS-PAGE, Coomassie; subunits co-expressed in 293T cells
[3] = molecular target: T2, His-tagged Orc1 K362A (S. cerevisiae) (UniProt P54784); test: as above
T2 sequence: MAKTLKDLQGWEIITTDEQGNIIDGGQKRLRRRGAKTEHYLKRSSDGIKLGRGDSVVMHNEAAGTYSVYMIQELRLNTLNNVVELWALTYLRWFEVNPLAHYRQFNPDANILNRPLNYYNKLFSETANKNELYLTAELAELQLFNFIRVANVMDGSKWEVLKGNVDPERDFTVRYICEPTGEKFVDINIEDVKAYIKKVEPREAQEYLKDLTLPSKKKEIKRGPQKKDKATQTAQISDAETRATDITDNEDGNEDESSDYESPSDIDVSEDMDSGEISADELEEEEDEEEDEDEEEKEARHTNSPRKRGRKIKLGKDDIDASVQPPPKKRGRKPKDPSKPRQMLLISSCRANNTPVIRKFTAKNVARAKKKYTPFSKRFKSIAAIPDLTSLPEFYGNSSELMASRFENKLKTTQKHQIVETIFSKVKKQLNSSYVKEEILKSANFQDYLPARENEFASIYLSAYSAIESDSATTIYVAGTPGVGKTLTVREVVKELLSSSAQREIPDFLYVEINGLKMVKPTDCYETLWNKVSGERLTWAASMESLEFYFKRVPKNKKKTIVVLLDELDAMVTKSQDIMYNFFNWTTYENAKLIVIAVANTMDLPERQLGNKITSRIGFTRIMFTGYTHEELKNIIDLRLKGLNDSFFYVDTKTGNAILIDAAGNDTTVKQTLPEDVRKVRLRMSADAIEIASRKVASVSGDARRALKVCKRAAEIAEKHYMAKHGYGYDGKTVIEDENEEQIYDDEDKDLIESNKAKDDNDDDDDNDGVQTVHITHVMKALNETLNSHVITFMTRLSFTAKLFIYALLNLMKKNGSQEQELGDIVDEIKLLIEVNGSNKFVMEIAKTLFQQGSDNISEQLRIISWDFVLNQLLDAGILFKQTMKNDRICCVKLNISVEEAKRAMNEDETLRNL

[4] = molecular target: T3, His-tagged Orc1 R367A (S. cerevisiae) (UniProt P54784); test: as above
T3 sequence: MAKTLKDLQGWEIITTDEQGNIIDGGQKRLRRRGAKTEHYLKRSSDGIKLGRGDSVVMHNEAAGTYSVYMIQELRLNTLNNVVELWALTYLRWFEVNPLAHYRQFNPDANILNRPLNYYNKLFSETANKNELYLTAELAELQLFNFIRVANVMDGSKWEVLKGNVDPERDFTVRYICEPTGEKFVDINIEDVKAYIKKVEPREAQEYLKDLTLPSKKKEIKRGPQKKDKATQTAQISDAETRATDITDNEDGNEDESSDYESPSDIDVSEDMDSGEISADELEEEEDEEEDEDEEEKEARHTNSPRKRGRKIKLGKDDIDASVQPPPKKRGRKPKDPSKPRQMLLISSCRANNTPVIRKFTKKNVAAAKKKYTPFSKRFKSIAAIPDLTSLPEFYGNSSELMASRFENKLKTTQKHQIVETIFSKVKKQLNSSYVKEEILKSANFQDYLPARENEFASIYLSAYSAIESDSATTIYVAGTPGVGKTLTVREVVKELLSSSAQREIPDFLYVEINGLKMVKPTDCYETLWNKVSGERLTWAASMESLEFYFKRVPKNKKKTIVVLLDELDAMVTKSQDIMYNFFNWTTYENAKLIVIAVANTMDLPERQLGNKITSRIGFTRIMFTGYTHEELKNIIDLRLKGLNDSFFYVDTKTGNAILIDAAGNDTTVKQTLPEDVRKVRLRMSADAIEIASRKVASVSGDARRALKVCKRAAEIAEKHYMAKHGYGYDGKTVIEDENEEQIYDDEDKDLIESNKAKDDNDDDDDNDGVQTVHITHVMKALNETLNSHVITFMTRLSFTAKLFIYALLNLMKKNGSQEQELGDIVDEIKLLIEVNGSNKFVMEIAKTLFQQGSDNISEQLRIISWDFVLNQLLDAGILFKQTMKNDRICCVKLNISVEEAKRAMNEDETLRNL

[5] = molecular target: T1, His-tagged Orc1 (Orc1-His), wild type (S. cerevisiae); test: HisTrap affinity column chromatography; HisTrap column with linear imidazole gradient elution of lysate of 293T cells co-overexpressing His-tagged Orc1 (wild type or mutant) and Orc2/3/4/5/6; fractions on 9% SDS-PAGE, Coomassie
[6] = molecular target: T2, His-tagged Orc1 K362A (S. cerevisiae); test: as above
[7] = molecular target: T3, His-tagged Orc1 R367A (S. cerevisiae); test: as above
[8] = molecular target: T1, His-tagged Orc1 (Orc1-His), wild type (S. cerevisiae); test: pull-down; MagneHis beads, 1 h, in lysis buffer (50 mM Hepes-KOH pH 7.6, 0.3% NP-40, 400 mM KCl, 17.5 mM imidazole) with nuclease-treated lysate of 293T cells co-overexpressing Orc1-His and Orc2/3/4/5; five washes, elution with 500 mM imidazole; SDS-PAGE, Coomassie
[9] = molecular target: T4, His-tagged Orc1 (Orc1-His), wild type (S. cerevisiae), P54784; test: pull-down; cleared lysates of 293T cells co-overexpressing Orc1-His, Orc2, Orc3, Orc4, Orc5 with or without Orc6; pulldown by the His tag; 9% SDS-PAGE, Coomassie staining; conditions: remark: other sources report otherwise
T4 chain: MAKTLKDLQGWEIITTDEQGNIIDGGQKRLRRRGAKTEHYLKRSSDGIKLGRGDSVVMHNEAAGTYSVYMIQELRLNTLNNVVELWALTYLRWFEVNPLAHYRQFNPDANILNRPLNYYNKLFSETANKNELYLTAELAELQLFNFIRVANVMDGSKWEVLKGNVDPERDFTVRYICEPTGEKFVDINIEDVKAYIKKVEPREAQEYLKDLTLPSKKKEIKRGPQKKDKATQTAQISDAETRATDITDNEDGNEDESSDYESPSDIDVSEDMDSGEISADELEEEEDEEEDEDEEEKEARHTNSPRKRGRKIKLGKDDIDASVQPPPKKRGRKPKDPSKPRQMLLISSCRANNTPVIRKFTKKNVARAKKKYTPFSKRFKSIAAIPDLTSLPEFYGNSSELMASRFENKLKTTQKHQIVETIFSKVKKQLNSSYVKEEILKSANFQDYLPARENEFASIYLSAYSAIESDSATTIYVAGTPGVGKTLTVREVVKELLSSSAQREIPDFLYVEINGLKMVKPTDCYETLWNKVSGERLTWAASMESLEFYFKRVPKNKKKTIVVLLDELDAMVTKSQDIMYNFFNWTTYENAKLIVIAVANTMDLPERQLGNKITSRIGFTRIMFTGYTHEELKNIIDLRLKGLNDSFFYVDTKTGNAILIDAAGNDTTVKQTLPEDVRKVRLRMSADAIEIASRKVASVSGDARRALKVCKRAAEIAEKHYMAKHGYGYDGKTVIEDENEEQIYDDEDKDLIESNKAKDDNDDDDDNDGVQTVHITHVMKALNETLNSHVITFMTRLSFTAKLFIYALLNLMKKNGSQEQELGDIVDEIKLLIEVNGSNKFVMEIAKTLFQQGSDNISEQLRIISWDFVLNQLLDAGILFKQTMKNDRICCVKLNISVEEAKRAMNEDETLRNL

[10] = molecular target: T4, His-tagged Orc1 (Orc1-His), wild type …; test: SEC; Superdex 200 in buffer H/0.2 (200 mM KCl) of the peak fractions after His affinity step and SP Sepharose; fractions on 9% SDS-PAGE, Coomassie; subunits co-expressed in 293T cells; conditions: remark: other sources report otherwise
[11] = molecular target: T4, His-tagged Orc1 (Orc1-His), wild type …; test: HisTrap affinity column chromatography; HisTrap column with linear imidazole gradient elution of lysate of 293T cells co-overexpressing His-tagged Orc1 (wild type or mutant) and Orc2/3/4/5/6; fractions on 9% SDS-PAGE, Coomassie; conditions: remark: other sources report otherwise

Measured: binding

B1: Orc4 (protein, UniProt P54791 1-529)
chain: MTISEARLSPQVNLLPIKRHSNEEVEETAAILKKRTIDNEKCKDSDPGFGSLQRRLLQQLYGTLPTDEKIIFTYLQDCQQEIDRIIKQSIIQKESHSVILVGPRQSYKTYLLDYELSLLQQSYKEQFITIRLNGFIHSEQTAINGIATQLEQQLQKIHGSEEKIDDTSLETISSGSLTEVFEKILLLLDSTTKTRNEDSGEVDRESITKITVVFIFDEIDTFAGPVRQTLLYNLFDMVEHSRVPVCIFGCTTKLNILEYLEKRVKSRFSQRVIYMPQIQNLDDMVDAVRNLLTVRSEISPWVSQWNETLEKELSDPRSNLNRHIRMNFETFRSLPTLKNSIIPLVATSKNFGSLCTAIKSCSFLDIYNKNQLSNNLTGRLQSLSDLELAILISAARVALRAKDGSFNFNLAYAEYEKMIKAINSRIPTVAPTTNVGTGQSTFSIDNTIKLWLKKDVKNVWENLVQLDFFTEKSAVGLRDNATAAFYASNYQFQGTMIPFDLRSYQMQIILQELRRIIPKSNMYYSWTQL
not listed: [9] | [10] | [11]
binds: all other assays above

B2: Orc6, P38826 1-435 (protein)
chain: MSMQQVQHCVAEVLRLDPQEKPDWSSGYLKKLTNATSILYNTSLNKVMLKQDEEVARCHICAYIASQKMNEKHMPDLCYYIDSIPLEPKKAKHLMNLFRQSLSNSSPMKQFAWTPSPKKNKRSPVKNGGRFTSSDPKELRNQLFGTPTKVRKSQNNDSFVIPELPPMQTNESPSITRRKLAFEEDEDEDEEEPGNDGLSLKSHSNKSITGTRNVDSDEYENHESDPTSEEEPLGVQESRSGRTKQNKAVGKPQSELKTAKALRKRGRIPNSLLVKKYCKMTTEEIIRLCNDFELPREVAYKIVDEYNINASRLVCPWQLVCGLVLNCTFIVFNERRRKDPRIDHFIVSKMCSLMLTSKVDDVIECVKLVKELIIGEKWFRDLQIRYDDFDGIRYDEIIFRKLGSMLQTTNILVTDDQYNIWKKRIEMDLALTEPL
binds: [9] | [10] | [11]

B3: Orc5 (protein, UniProt P50874 1-479)
chain: MNVTTPEVAFREYQTNCLASYISADPDITPSNLILQGYSGTGKTYTLKKYFNANPNLHAVWLEPVELVSWKPLLQAIARTVQYKLKTLYPNIPTTDYDPLQVEEPFLLVKTLHNIFVQYESLQEKTCLFLILDGFDSLQDLDAALFNKYIKLNELLPKDSKINIKFIYTMLETSFLQRYSTHCIPTVMFPRYNVDEVSTILVMSRCGELMEDSCLRKRIIEEQITDCTDDQFQNVAANFIHLIVQAFHSYTGNDIFALNDLIDFKWPKYVSRITKENIFEPLALYKSAIKLFLSTDDNLSENGQGESAITTNRDDLENSQTYDLSIISKYLLIASYICSYLEPRYDASIFSRKTRIIQGRAAYGRRKKKEVNPRYLQPSLFAIERLLAIFQAIFPIQGKAESGSLSALREESLMKANIEVFQNLSELHTLKLIATTMNKNIDYLSPKVRWKVNVPWEIIKEISESVHFNISDYFSDIHE
not listed: [9] | [10] | [11]
binds: all other assays above
